Source: patent US11034671B2, “Apoptosis signal-regulating kinase inhibitors and uses thereof” (SICHUAN HAISCO PHARMACEUTICAL CO., LTD., priority 2017, dated 2021)
For at least one compound, name, drawing or mass did not settle the structure.

Chains of the proteins cited; added tags and fusions are not shown. Lines headed by an entry give the natural chain unless they say otherwise; changes in a name come on top.
UniProt Q99683: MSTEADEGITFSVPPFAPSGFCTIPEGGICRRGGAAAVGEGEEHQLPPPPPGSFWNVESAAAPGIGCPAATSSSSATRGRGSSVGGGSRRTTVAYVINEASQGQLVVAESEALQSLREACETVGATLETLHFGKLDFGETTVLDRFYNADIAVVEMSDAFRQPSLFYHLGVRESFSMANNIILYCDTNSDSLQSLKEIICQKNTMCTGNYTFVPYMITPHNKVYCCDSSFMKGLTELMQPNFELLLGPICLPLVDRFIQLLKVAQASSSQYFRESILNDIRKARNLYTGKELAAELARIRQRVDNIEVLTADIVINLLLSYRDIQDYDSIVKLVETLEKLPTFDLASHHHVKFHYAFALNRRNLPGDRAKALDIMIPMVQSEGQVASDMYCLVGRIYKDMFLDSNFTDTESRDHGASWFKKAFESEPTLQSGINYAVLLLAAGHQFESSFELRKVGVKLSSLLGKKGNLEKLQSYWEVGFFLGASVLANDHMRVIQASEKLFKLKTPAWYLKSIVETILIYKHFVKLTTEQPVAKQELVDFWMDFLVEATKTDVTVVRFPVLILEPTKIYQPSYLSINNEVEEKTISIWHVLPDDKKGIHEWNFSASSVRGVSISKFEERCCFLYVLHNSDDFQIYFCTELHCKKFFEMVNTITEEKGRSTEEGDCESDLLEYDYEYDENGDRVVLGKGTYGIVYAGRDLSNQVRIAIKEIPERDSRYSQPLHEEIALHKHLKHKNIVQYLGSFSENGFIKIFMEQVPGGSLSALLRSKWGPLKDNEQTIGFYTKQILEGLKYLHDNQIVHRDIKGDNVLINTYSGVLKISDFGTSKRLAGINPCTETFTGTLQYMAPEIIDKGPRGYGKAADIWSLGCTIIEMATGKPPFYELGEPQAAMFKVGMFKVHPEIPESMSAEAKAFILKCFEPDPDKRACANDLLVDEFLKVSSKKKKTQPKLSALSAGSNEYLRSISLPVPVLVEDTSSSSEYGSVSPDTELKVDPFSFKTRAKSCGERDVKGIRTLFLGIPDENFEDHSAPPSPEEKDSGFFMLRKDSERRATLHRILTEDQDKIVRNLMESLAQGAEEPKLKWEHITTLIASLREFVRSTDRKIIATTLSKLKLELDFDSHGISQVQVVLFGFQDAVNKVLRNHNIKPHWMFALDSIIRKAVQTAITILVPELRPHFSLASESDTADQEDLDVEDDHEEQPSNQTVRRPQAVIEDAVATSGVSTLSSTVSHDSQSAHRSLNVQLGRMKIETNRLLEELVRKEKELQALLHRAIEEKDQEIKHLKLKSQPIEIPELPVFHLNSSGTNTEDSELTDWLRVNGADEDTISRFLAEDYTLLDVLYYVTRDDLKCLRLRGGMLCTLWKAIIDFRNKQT

Target: ASK1 (Homo sapiens (Human), UniProt Q99683)
Assay: ASK1 KINOMEscan assay (biochemical Kd), competition binding
Details: DNA-tagged ASK1 kinase, 11-point 3-fold dilution
Description: The binding of compounds to ASK1 were determined using DiscoverX's proprietary technology. […] The assay is performed by combining three components: DNA-tagged ASK1 kinase; immobilized ligand; and a test compound. The ability of the test compound to compete with the immobilized ligand is measured via quantitative PCR of the DNA tag. […] The liganded beads were blocked with excess biotin and washed with blocking buffer (SeaBlock (Pierce), 1% BSA, 0.05% Tween 20, 1 mM DTT) to remove unbound ligand and to reduce nonspecific binding. […] Kds were determined using an 11-point 3-fold compound dilution series with three DMSO control points. […] The compounds were then diluted directly into the assays such that the final concentration of DMSO was 0.9%. All reactions were performed in polypropylene 384-well plate. […] The kinase concentration in the eluates was measured by qPCR. Most Kds were determined using a compound top concentration=30,000 nM. […] Binding constants (Kds) were calculated with a standard dose-response curve using the Hill equation: Response=Background+{(Signal−Background)/[1+(Kd^Hill Slope/Dose^Hill Slope)]}, the Hill Slope was set to −1, and curves were fitted using a non-linear least square fit with the Levenberg-Marquardt algorithm.

## COc1ccc2c(c1)C(=O)Nc1cccc(n1)-c1nncn1CCCC2 [Example 15]
  Kd: > 1000 nM
